Experimental data reported in publication PMC4792573.
These are yes or no findings as the source states them, for the method shown. In cells and extracts the contact can be indirect. Some entries that bind do so weakly or less than the wild type.

Molecular target: NAD(P)H quinone oxidoreductase 1 (human (endogenous in MCF7)) (UniProt P15559)
Assay: co-IP; total protein of control and Ell3-OE MCF7 cells treated with CDDP for 12 h, immunoprecipitated with anti-NQO1 antibodies (4 μg, 16 h, 4°C, protein G beads), immunoblotted with anti-p53

binding: binds
Substance: p53 (endogenous in MCF7 cells) (from UniProt P04637 1-393)
